According to publication PMC5775428, “Towards an experimental classification system for membrane active peptides” (Scientific Reports, 2018):

Tests used:
[1] = PCA2 and hierarchical clustering of DSC data; design: key: Cluster 1 is composed by molecules with no significant interaction with the evaluated model membranes; Cluster 2 peptides present no detectable interaction with DMPC LUVs but disturb the main phase transition of 2:1 DMPC:DMPG LUVs; Cluster 3: Clusters 3 and 4 are populated by IAPs and AMPs that alter the main phase transition DMPC and 2:1 DMPC:DMPG LUVs and present significant and broad antimicrobial activity; Cluster 4: Clusters 3 and 4 are populated by IAPs and AMPs that alter the main phase transition DMPC and 2:1 DMPC:DMPG LUVs and present significant and broad antimicrobial activity; Cluster 5: The peptide cluster 5 is composed solely of AMPs; details: cluster membership from HCA of first five principal components of PCA2 (DSC data)
[2] = design: method as in earlier work; details: CD [θ]222 nm, 2:1 DMPC:DMPG LUVs, 2012 dataset; cited from earlier work
[3] = design: method as in earlier work; details: CD [θ]222 nm, 2012 dataset; cited from earlier work
[4] = design: method as in earlier work; details: CD [θ]222 nm, DMPC LUVs, 2012 dataset; cited from earlier work
[5] = Far-UV CD, percent helicity with 2:1 DMPC:DMPG LUVs; format: physicochemical; details: CD [θ]222 nm, 40 μM peptide + 2:1 DMPC:DMPG LUVs, 2016 dataset
[6] = DSC of DMPC LUVs with peptide; details: 2016 dataset
[7] = Far-UV CD, percent helicity with DMPC LUVs; format: physicochemical; details: CD [θ]222 nm, 40 μM peptide + DMPC LUVs, 2016 dataset
[8] = DSC of 2:1 DMPC:DMPG LUVs with peptide
[9] = Far-UV CD, percent helicity in buffer; format: physicochemical; details: CD [θ]222 nm, 40 μM peptide in buffer, method of Chen et al., 2016 dataset
[10] = 2:1 DMPC:DMPG LUVs + 4 mol% peptide, 2016 dataset

| Sequence | Cluster [1] | % Helicity 0.01 peptide/(2:1 DMPC/DMPG) (mol/mol) [2] [%] | % Helicity (Buffer) [3] [%] | % Helicity 0.01 peptide/DMPC (mol/mol) [4] [%] | further results |
| --- | --- | --- | --- | --- | --- |
| AAAAAAAIKMLMDLVNERIMALNKKAKK [Q6TV81(25-52)] | Cluster 4 | 100.1 | 47.7 | 76.7 |  |
| FFGHIWHGARTLFRDVFA [Cs02, putative IAP, YP_740502.1 (463–480)] | Cluster 4 |  |  |  | % Helicity 0.01 peptide/(2:1 DMPC/DMPG) (mol/mol) [5]: 52.9%; Tm_broad_pc, transition temperature of broad component ([6]; 0.5 mM DMPC LUVs + 20 μM peptide (4 mol%), pH 7.4, P′β→Lα transition, non-two state fit): 23.78 °C; H_broad_pc, transition enthalpy of broad component ([6]; DMPC LUVs + 4 mol% peptide): 4605 kcal/mol; H_sharp_pc, transition enthalpy of sharp component ([6]; DMPC LUVs + 4 mol% peptide): 1040 kcal/mol; Hv_broad_pc, van´t Hoff transition enthalpy of broad component ([6]; DMPC LUVs + 4 mol% peptide): 75410 kcal/mol; Hv_sharp_pc, van´t Hoff transition enthalpy of sharp component ([6]; DMPC LUVs + 4 mol% peptide): 386100 kcal/mol; Tm_sharp_pc, transition temperature of sharp component ([6]; DMPC LUVs + 4 mol% peptide): 22.15 °C; % Helicity 0.01 peptide/DMPC (mol/mol) [7]: 52.8%; Tm_broad_pcpg, transition temperature of broad component ([8]; 0.5 mM 2:1 DMPC:DMPG LUVs + 20 μM peptide (4 mol%), pH 7.4, 2016 dataset): 26.00 °C; H_broad_pcpg, transition enthalpy of broad component [8, 10]: 2655 kcal/mol; H_sharp_pcpg, transition enthalpy of sharp component [8, 10]: 1205 kcal/mol; Hv_broad_pcpg, van´t Hoff transition enthalpy of broad component [8, 10]: 107000 kcal/mol; Hv_sharp_pcpg, van´t Hoff transition enthalpy of sharp component [8, 10]: 193300 kcal/mol; Tm_sharp_pcpg, transition temperature of sharp component [8, 10]: 21.49 °C; % Helicity (Buffer) [9]: 4.3% |
| FKALRALRLEDLRIPTSYIK [A3KLW0(117-136)] | Cluster 3 | 8.7 | 10.0 | 9.0 |  |
| FVTNSKRLAEGIEKGVGNSILIKVN [Q8KG25(327-351)] | Cluster 1 | 16.9 | 18.8 | 14.9 |  |
| GKFHQIKKMFLSVGVKVTSLKRIQFGDF [A5LDU0(184-211)] | Cluster 2 |  |  |  |  |
| KAGLQFPVGRIARFLK [B4FGE3(22-37)] | Cluster 2 | 6.2 | 4.5 | 3.2 |  |
| LVQRFHAYLHKFREAFMNVGAAAAVEGTKAA [A4HW34(187-217)] | Cluster 3 | 32.0 | 6.0 | 17.5 |  |

Read-outs that look alike come from different tables or passages of the source.
